For data set [1] the following is noted: continuous exposure to lower concentrations.
A short description of data set [2]: Bleaching of Kraft pulp, hand sheet tests. To be noted: for Kappa No.: unbleached pulp 30.

Here are results for 2 compounds from patent US12215460B2, “Methods of microbial control” (Clean Chemistry, Inc., priority 2015, dated 2025).

With `[O][Cl+][O-]` [chlorine dioxide], in data set [1], the “increase of corrosion rate on steel on increasing temperature to 140 F” value is reported as “doubled”. In data set [1] (room temperature), the “corrosion rate on steel relative to peracetate oxidant” value was in the range of 1.7 to 2.1 times. For the same compound, the “Kappa No.” value in data set [2] (Entry 2, bleach time 30 min, 1.13 g/L PAA equiv., initial pH 8.2) came to 22.
In the case of `CC(=O)OO` [peracetic acid], in data set [1], the “increase of corrosion rate on steel on increasing temperature to 140 F” value was “quadrupled”. Besides, the “Kappa No.” value was 31 in data set [2] (Entry 7, 30 min, 4.0 g/L, initial pH 7.0) and 29 in data set [2] (Entry 9, 30 min, 4.0 g/L, initial pH 8.9). In addition, the “Kappa unit reduction (bleaching efficiency)” value in data set [2] (hand sheet tests, initial pulp Kappa number 30) was “only up to one Kappa unit reduction”.
